Experimental data from patent publication US20070192880.

Key:
ERα (expressed in cells) = ERα (expressed in cells) (UniProt P03372); test: activity in cells; conditions: COS-1, E2; no induction; protein in cells; variant of consensus ERE; only the site is given
[1] = target: T1, CDC (in vitro translated) (UniProt P03372); test: EMSA; conditions: half-site; protein translated in vitro; label: 32P end-label; only the motif is given; variant of consensus ERE
T1 sequence: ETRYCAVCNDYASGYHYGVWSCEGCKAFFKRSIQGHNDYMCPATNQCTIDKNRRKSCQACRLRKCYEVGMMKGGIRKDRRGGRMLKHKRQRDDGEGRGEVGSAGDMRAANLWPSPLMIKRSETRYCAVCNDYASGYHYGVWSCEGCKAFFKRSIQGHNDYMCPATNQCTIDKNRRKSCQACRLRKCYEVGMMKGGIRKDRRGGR

[2] = target: ERα (in vitro translated) (UniProt P03372); test: EMSA; conditions: half-site; protein translated in vitro; protein details: Flag, rabbit reticulocyte; label: 32P end-label; only the motif is given; variant of consensus ERE

Sequence | activity on this sequence (ERα (expressed in cells)) | binding result [1] | binding result [2]
AGGTCATGACCT (double strand) [palindromic TRE (ERE half-sites, 0 spacer)] | not active |  | 
GGTCA (double strand) [ERE half-site fragment] |  | no binding | no binding

Negatives hold for the conditions tested. For part of these data: Construct, isoform or probe ends are uncertain for at least one entry. For part of these data: Where a protein sequence is shown, tags need not be part of it.
